The numbers were not newly measured in publication PMC7284918, “In-Depth Characterization of EpiIntestinal Microtissue as a Model for Intestinal Drug Absorption and Metabolism in Human” (Pharmaceutics, 2020), which cites them from elsewhere.

The conditions of the data set: human, clinical; cited from earlier work.

For the molecule `CC(C)c1c(C(=O)Nc2ccccc2)c(-c2ccccc2)c(-c2ccc(F)cc2)n1CC[C@@H](O)C[C@@H](O)CC(=O)O` [Atorvastatin], the “F (total oral availability)” value was 0.14 [17] and the “fe (fraction of renal excretion)” value is 0.01 [18].
